From the supplement of paper PMC10849652
The list shows a part of the results.

Chains of the proteins cited; added tags and fusions are not shown. Lines headed by an entry give the natural chain unless they say otherwise; changes in a name come on top.
UniProt P0CL80: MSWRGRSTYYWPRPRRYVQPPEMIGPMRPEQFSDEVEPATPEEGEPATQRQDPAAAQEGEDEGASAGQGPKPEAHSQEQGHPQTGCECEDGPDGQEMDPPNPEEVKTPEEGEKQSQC
UniProt O14772: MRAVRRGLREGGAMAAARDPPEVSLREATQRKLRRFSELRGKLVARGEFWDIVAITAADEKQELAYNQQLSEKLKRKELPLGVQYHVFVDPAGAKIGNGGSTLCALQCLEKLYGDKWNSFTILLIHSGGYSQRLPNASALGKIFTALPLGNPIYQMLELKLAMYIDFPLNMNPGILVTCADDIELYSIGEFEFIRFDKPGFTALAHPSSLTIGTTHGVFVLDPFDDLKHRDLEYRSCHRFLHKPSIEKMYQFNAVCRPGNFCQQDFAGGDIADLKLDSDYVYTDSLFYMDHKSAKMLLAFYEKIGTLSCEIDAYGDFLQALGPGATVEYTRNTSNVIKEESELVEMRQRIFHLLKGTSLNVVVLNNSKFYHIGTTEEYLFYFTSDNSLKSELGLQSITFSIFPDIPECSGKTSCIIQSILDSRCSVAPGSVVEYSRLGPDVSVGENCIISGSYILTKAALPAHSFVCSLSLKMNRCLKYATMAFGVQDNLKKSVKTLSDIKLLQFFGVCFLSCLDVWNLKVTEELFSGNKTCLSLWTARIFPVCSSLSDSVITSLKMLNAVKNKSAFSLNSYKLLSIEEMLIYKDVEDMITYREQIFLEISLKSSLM
UniProt Q8WXD5: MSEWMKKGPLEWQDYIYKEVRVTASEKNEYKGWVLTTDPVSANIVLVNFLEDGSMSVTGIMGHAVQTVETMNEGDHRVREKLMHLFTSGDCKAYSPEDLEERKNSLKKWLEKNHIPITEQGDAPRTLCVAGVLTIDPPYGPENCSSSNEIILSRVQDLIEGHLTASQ
UniProt Q13480: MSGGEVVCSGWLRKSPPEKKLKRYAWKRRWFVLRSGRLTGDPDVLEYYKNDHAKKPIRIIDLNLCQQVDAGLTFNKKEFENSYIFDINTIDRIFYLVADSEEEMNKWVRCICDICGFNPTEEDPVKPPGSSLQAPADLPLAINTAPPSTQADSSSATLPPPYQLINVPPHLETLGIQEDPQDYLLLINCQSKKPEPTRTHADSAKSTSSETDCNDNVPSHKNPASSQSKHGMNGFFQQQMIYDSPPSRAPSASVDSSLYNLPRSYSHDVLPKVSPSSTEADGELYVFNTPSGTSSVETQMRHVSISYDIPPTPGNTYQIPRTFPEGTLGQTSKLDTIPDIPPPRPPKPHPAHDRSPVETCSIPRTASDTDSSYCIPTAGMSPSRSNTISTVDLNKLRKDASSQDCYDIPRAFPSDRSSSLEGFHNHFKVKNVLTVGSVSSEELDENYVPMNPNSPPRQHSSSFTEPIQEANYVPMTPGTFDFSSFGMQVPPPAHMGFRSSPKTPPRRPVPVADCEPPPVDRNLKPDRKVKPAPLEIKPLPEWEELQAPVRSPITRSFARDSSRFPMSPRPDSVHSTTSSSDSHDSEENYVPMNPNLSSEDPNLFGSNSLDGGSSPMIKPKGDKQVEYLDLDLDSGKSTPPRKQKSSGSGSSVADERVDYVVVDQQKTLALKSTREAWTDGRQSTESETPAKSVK
UniProt P06241, whole entry, looked up: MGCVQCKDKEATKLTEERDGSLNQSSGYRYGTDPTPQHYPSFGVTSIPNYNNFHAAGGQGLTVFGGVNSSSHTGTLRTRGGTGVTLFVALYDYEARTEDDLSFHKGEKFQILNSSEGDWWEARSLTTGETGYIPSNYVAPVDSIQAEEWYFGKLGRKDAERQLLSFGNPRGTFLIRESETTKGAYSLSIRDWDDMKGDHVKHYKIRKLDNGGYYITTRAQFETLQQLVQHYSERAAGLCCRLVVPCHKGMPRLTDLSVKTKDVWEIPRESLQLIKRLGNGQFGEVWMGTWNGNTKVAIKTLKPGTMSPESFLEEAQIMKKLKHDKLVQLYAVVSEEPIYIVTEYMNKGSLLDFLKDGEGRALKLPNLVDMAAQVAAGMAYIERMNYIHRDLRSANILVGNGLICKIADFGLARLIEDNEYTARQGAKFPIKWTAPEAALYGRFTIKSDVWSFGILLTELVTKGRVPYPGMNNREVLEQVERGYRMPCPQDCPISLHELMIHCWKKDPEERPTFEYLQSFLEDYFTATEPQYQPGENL
UniProt P35637: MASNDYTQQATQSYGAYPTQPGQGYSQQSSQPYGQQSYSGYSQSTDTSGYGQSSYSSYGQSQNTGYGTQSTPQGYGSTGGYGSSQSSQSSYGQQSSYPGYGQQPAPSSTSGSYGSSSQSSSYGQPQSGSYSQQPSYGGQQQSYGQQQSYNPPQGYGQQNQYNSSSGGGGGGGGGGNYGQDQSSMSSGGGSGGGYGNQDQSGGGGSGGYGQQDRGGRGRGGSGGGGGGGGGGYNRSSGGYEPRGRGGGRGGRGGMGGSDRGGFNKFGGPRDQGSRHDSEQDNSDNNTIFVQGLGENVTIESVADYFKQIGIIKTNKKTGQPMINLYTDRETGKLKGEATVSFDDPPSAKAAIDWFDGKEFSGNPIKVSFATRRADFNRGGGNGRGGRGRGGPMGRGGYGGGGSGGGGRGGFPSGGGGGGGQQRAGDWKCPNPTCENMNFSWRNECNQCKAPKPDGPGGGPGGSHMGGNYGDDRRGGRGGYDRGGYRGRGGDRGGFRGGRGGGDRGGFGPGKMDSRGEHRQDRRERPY
UniProt P57678: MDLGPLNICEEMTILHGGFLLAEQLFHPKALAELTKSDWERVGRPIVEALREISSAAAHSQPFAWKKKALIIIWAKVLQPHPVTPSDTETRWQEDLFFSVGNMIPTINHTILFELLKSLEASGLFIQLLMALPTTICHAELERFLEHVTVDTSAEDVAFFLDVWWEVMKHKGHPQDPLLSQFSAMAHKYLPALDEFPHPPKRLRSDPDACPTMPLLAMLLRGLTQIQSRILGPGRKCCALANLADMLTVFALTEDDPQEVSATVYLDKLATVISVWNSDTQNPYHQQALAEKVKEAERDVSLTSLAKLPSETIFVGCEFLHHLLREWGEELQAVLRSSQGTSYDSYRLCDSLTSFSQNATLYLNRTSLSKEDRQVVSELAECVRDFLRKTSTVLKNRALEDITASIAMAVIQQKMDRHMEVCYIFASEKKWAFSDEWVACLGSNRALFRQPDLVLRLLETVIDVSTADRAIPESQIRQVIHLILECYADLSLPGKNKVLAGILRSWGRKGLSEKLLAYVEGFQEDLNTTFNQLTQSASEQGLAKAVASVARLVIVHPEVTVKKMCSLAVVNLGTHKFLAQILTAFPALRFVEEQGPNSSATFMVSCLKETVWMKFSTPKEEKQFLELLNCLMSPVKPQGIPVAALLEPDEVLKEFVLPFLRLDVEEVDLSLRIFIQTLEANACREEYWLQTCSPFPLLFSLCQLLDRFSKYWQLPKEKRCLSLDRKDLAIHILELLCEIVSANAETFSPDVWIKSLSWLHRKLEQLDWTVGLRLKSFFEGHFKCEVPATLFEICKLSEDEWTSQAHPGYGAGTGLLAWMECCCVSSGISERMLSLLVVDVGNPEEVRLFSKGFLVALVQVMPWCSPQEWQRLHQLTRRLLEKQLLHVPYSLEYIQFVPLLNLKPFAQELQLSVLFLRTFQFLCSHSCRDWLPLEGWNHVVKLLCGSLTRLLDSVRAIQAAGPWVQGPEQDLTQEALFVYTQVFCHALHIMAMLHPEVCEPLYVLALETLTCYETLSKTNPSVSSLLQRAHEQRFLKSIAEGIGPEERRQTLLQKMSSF
UniProt Q16595: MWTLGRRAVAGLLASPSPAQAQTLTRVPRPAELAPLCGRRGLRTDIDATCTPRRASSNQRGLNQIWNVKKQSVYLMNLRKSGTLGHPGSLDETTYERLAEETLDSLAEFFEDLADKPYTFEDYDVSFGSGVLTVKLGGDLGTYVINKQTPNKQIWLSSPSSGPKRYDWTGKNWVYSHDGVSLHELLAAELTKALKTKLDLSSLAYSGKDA
UniProt Q92616, whole entry, looked up: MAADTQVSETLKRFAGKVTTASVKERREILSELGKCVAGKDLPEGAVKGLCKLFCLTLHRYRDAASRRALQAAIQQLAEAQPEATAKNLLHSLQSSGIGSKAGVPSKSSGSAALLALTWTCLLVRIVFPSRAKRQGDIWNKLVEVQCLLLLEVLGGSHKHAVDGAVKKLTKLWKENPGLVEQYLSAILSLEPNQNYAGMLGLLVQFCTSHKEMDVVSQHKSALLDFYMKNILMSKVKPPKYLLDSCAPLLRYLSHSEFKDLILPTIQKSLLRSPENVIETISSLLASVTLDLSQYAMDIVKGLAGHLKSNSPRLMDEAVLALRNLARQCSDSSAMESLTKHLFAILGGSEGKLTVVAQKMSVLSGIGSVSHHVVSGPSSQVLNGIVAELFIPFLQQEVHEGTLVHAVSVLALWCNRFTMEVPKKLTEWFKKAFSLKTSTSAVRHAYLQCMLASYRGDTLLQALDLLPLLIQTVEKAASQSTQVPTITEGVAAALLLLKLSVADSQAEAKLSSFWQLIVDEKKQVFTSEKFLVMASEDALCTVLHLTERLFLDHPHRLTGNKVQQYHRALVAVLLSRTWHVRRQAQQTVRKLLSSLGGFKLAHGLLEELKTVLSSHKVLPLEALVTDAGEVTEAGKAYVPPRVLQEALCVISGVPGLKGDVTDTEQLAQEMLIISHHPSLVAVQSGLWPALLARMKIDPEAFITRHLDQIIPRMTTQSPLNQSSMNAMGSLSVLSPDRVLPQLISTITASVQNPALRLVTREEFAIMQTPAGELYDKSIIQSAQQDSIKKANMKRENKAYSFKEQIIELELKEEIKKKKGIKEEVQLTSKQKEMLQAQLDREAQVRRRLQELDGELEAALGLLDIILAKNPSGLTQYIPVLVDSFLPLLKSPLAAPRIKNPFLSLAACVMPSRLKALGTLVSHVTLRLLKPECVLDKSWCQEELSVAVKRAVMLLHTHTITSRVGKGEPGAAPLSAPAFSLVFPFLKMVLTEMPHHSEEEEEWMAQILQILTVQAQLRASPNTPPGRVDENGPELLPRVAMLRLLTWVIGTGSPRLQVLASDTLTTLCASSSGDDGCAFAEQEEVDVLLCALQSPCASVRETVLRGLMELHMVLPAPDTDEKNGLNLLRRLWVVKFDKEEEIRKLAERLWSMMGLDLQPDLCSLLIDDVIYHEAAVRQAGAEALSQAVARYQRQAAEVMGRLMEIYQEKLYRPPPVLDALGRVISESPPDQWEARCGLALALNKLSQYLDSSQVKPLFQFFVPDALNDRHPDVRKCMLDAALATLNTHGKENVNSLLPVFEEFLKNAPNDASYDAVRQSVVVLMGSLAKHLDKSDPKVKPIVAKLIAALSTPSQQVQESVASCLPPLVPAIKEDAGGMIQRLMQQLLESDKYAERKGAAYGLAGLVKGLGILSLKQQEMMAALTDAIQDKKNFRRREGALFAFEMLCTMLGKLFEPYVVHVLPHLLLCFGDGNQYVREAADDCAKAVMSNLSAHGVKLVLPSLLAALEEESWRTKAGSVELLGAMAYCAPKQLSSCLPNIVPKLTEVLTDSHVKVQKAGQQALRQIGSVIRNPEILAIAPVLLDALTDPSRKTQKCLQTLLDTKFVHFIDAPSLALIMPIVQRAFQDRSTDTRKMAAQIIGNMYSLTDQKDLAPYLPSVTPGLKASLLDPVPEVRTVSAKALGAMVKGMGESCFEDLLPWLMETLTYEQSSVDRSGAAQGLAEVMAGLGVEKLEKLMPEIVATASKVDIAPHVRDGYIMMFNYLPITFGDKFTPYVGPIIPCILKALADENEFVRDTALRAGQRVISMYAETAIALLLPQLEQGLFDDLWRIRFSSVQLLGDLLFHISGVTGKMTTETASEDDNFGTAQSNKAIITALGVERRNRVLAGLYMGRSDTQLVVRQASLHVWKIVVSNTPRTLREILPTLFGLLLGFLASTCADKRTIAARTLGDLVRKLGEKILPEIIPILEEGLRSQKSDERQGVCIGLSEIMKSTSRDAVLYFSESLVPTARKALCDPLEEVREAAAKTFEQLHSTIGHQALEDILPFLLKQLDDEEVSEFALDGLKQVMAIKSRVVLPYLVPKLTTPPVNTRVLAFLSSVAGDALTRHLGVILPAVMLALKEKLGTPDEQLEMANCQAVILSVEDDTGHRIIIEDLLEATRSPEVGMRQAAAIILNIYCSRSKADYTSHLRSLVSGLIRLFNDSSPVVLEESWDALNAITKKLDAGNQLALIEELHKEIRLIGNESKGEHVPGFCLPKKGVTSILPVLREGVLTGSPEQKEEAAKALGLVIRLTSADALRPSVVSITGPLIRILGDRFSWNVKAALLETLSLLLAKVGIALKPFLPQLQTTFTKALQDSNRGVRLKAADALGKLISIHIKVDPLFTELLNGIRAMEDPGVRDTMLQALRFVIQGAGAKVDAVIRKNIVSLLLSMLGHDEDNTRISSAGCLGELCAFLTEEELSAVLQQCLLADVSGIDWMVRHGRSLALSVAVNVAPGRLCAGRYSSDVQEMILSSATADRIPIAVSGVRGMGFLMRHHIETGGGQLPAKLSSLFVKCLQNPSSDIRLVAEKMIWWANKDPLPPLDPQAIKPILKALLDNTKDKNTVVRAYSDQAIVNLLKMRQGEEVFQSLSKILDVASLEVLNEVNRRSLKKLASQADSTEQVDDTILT

The targets below were run with NCC(=O)Nc1ccc(-n2nc(C(F)(F)F)cc2-c2ccc3c(ccc4ccccc43)c2)cc1 (assay: log2 fold change, soluble protein after heating vs DMSO (PISA); higher = thermal stabilisation; K562 lysate, 10 uM; active = over 0.2 and 3.5 SD of the protein, either way, in both replicates (recomputed)).
Summary of the method: (§1)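 Soluble protein was defined as the supernatant remaining after 21,000xg for 90 min, following pooling of heated aliquots and adjustment to 0.5% NP-40 at 4°C. Before that, crude K562 extract at 1 mg/mL protein in PBS pH 7.4 with 1 mM MgCl2 was treated with 10 μM compound for 30 min and heated for 3 min across 48°C-58°C. Quantification used TMTpro 16plex LC-MS/MS with channel sums equalised, and values are log-two fold changes in thermal stability relative to solvent controls from duplicates.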

Target | log2 fold change
GAGE12F (UniProt P0CL80) | inactive: -0.049
GDAP1 (UniProt Q8TB36) | inactive: -0.092
GAPVD1 isoform 6 (UniProt Q14C86) | inactive: -0.033
FPGT (UniProt O14772) | inactive: -0.014
FYTTD1 (UniProt Q96QD9) | inactive: -0.142
GCLC (UniProt P48506) | inactive: -0.022
GDI2 (UniProt P50395) | inactive: 0
GALNT10 (UniProt Q86SR1) | inactive: -0.053
GCLM (UniProt P48507) | inactive: 0.007
FOXJ3 (UniProt Q9UPW0) | inactive: -0.016
GATAD2A isoform 3 (UniProt Q86YP4) | inactive: 0.023
GALNT2 (UniProt Q10471) | inactive: -0.018
GFM1 (UniProt Q96RP9) | inactive: 0.019
FRA10AC1 (UniProt Q70Z53) | inactive: 0.008
GEMIN6 (UniProt Q8WXD5) | inactive: -0.008
GARS1 (UniProt P41250) | inactive: 0.016
GCSH (UniProt P23434) | inactive: 0.032
GAB1 isoform 2 (UniProt Q13480) | inactive: -0.015
FRYL (UniProt O94915) | inactive: -0.023
GDPGP1 (UniProt Q6ZNW5) | inactive: 0.068

Target | log2 fold change
FYN (UniProt P06241) | inactive: -0.047
GALNT5 (UniProt Q7Z7M9) | inactive: -0.016
GCC1 (UniProt Q96CN9) | inactive: 0.023
GFPT1 (UniProt Q06210) | inactive: 0.034
GCC2 (UniProt Q8IWJ2) | inactive: 0.011
GEMIN8 (UniProt Q9NWZ8) | inactive: -0.001
FUS (UniProt P35637) | inactive: -0.014
GANAB isoform 2 (UniProt Q14697) | inactive: -0.005
FTSJ1 (UniProt Q9UET6) | inactive: -0.024
GEMIN4 (UniProt P57678) | inactive: -0.025
GBA (UniProt P04062) | inactive: 0.056
GABARAPL2 (UniProt P60520) | inactive: 0.083
FXN (UniProt Q16595) | inactive: -0.071
GAMT (UniProt Q14353) | inactive: -0.046
GAPDH (UniProt P04406) | inactive: 0
GALT (UniProt P07902) | inactive: -0.058
FOXRED1 (UniProt Q96CU9) | inactive: -0.031
GCN1 (UniProt Q92616) | inactive: 0.01
FTH1 (UniProt P02794) | inactive: -0.026

What follows are targets tested with O=C(CCCCCCC(=O)Nc1ccccc1)NO [vorinostat] in the same assay as above.
Summary of the method: as §1

Target | log2 fold change
GAGE12F (UniProt P0CL80) | inactive: 0.069
GDAP1 (UniProt Q8TB36) | inactive: 0.207
GAPVD1 isoform 6 (UniProt Q14C86) | active: -0.292
FPGT (UniProt O14772) | active: -0.574
FYTTD1 (UniProt Q96QD9) | inactive: -0.064
GCLC (UniProt P48506) | inactive: -0.025
GDI2 (UniProt P50395) | inactive: 0.111
GALNT10 (UniProt Q86SR1) | inactive: -0.017
GCLM (UniProt P48507) | active: -0.277
FOXJ3 (UniProt Q9UPW0) | active: -0.24
GATAD2A isoform 3 (UniProt Q86YP4) | active: -0.213
GALNT2 (UniProt Q10471) | inactive: 0.069
GFM1 (UniProt Q96RP9) | inactive: -0.043
FRA10AC1 (UniProt Q70Z53) | inactive: 0.018
GEMIN6 (UniProt Q8WXD5) | inactive: -0.071
GARS1 (UniProt P41250) | inactive: 0.133
GCSH (UniProt P23434) | inactive: 0.084
GAB1 isoform 2 (UniProt Q13480) | inactive: -0.064
FRYL (UniProt O94915) | inactive: -0.079
GDPGP1 (UniProt Q6ZNW5) | inactive: 0.045

Target | log2 fold change
FYN (UniProt P06241) | inactive: 0.091
GALNT5 (UniProt Q7Z7M9) | inactive: 0.118
GCC1 (UniProt Q96CN9) | inactive: -0.082
GFPT1 (UniProt Q06210) | active: -0.409
GCC2 (UniProt Q8IWJ2) | inactive: -0.007
GEMIN8 (UniProt Q9NWZ8) | inactive: -0.155
FUS (UniProt P35637) | inactive: 0.115
GANAB isoform 2 (UniProt Q14697) | inactive: 0.091
FTSJ1 (UniProt Q9UET6) | active: -0.326
GEMIN4 (UniProt P57678) | active: -0.435
GBA (UniProt P04062) | inactive: 0.053
GABARAPL2 (UniProt P60520) | inactive: 0.128
FXN (UniProt Q16595) | inactive: 0.138
GAMT (UniProt Q14353) | active: -0.423
GAPDH (UniProt P04406) | active: 0.309
GALT (UniProt P07902) | inactive: 0.116
FOXRED1 (UniProt Q96CU9) | inactive: -0.021
GCN1 (UniProt Q92616) | active: -0.374
FTH1 (UniProt P02794) | inactive: 0.068
